The text below walks through data of publication PMC7819943, “Rice protein-binding microarrays: a tool to detect cis-acting elements near promoter regions in rice”.

Chains of the proteins cited; added tags and fusions are not shown.
UniProt Q0JBA9, entry or part of it: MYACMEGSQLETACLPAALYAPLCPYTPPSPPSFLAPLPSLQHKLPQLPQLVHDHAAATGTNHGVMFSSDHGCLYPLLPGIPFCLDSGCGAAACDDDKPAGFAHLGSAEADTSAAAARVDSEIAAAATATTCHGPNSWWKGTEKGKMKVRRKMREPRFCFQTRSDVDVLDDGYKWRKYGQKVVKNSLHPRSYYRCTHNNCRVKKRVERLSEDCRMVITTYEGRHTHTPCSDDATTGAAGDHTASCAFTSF

The list shows a part of the results.

In this test the target is OsWRKY34 (Oryza sativa, UniProt Q0JBA9 1-250). Briefly: protein-binding microarray (RPBM); PBS, 2% BSA, 51.3 ng/ul salmon testes DNA, 50 uM zinc acetate, 200 nM TF, 25 C, 1 h; high values mean tight binding. The note with it: protein: recombinant; tags: N-terminal polyhistidine and DsRed monomer fusion (pET32a); label: CyDye5-dUTP incorporated in the synthesized complementary strand; 3' TTTTT single-stranded linker to array surface; dsDNA, one strand shown. The method, boiled down: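 The binding signal is fluorescence intensity per feature, in arbitrary units, read on an Axon 4000B scanner. Polyhistidine- and DsRed-tagged transcription factors (N-terminal fusions) from E. coli BL21-CodonPlus were purified on Ni–NTA and applied at 200 nM for 1 h at 25 °C to a double-stranded, BSA-blocked custom Agilent array in buffer with 50 µM zinc acetate.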
In the case of “CTCGCGGTTGATCTCTCCCGGCCTTGTACGCCACCCGCGTCGGAGTCACCTAGTGCAG”, the binding signal is 9250 fluorescence intensity (a.u.).

Regarding “CTTGCCATATGGGTGTCTCGTGTTTCTTTGTTACGAGTGTCGGAGTCACCTAGTGCAG”, the binding signal was 9290 fluorescence intensity (a.u.). For “CCATCTTCATCTTCTTGTCGTCTTCGTCTCGACAGACAAACGGAGTCACCTAGTGCAG”, the binding signal was 11300 fluorescence intensity (a.u.).

As to “TAAGATAGCCTGCCTTTTGAGCCTGTGTTACTTACTACTCCGGAGTCACCTAGTGCAG”, the binding signal was 9470 fluorescence intensity (a.u.). For the sequence “ACTCACCACACCAGCCGCCGCCGCCTCCTGAGCCACGCAGCGGAGTCACCTAGTGCAG”, the binding signal was 9130 fluorescence intensity (a.u.). Turning to “GCCGCCTCGTCTGCAACCGCCTCCGCCTCCACGACCGACTCGGAGTCACCTAGTGCAG”, the binding signal is 10100 fluorescence intensity (a.u.). The result for “ACTGAACTCTCTGTGGGTTGTTGAACAACCGCTGGATCATCGGAGTCACCTAGTGCAG” reads 8440 fluorescence intensity (a.u.). Consider “AACATATTTATGGGGTAAATTTATCATTCTTGTCTTGATACGGAGTCACCTAGTGCAG”, for which the binding signal is 9380 fluorescence intensity (a.u.). On to “TTATTATTGTTATTTTTTTCCGTTTTTGTTTCTGAGCATTCGGAGTCACCTAGTGCAG”, for which the binding signal was 8660 fluorescence intensity (a.u.). Turning to “TGATGGGTGGGTATGCGAAGCTTGGTAAATTTCAAGAAAGCGGAGTCACCTAGTGCAG”, the binding signal is 8490 fluorescence intensity (a.u.). In the case of “AGGAGAGAGAGAGGGAGGGTAGGTGAGGGGATTTGATATTCGGAGTCACCTAGTGCAG”, the binding signal was 9440 fluorescence intensity (a.u.). The result for “ATAATACGGACAATCAAACATATTTTAAAAAGTCAACGACCGGAGTCACCTAGTGCAG” reads 8120 fluorescence intensity (a.u.); that for “CTATTTCACCGCTTCGCTCCATCCATCCGTTCCGTTTAGTCGGAGTCACCTAGTGCAG”, 13800 fluorescence intensity (a.u.); that for “ACTAATACTTATCCATCCACCCACTCCCCTGTGCATTAACCGGAGTCACCTAGTGCAG”, 8800 fluorescence intensity (a.u.). Next, “CCCCATTTCGTCTCGCGGTGAGTTTTTGGTAGTTTAGTTTCGGAGTCACCTAGTGCAG”: 10600 fluorescence intensity (a.u.); “CTTCTTCTGCGCCGCCGCCGCCGCCGCCGCCGCCGCCGGACGGAGTCACCTAGTGCAG”: 8090 fluorescence intensity (a.u.). Turning to “CGTTGGCTTTTGCTTTGCTTTTTCTCTTGCGCGTTGTGCTCGGAGTCACCTAGTGCAG”, the binding signal is 12700 fluorescence intensity (a.u.). Regarding “TTTTTTTTTTTTGTTGGGCTTGTGACTTGTGGGGTGTGCACGGAGTCACCTAGTGCAG”, the binding signal was 11600 fluorescence intensity (a.u.). Next, “AATCCAGGTATGCACTAGCTTGTTTTGGCAGGTCAGCTGACGGAGTCACCTAGTGCAG”: 10500 fluorescence intensity (a.u.). “TTTCACGCTACATTTTTAATCCTGGGAATATTGGGCTGGTCGGAGTCACCTAGTGCAG”: the binding signal is 10500 fluorescence intensity (a.u.). Take “TTCTTGCCTTTATCTTGCAGCCATTGCACACACCTCACTTCGGAGTCACCTAGTGCAG”: the binding signal is 10600 fluorescence intensity (a.u.). Consider “TTTATCAATTGTTCTACAATATGTCATTGGGTTGGGCCTTCGGAGTCACCTAGTGCAG”, for which the binding signal is 9740 fluorescence intensity (a.u.). As to “CGACATCTCTGAAACATTTCTCCTCGACCACGGCAACCCACGGAGTCACCTAGTGCAG”, the binding signal is 8630 fluorescence intensity (a.u.). Turning to “ATTATTTTTATCCTCGTTTGCACGAAAGAGCATTTTATAACGGAGTCACCTAGTGCAG”, the binding signal was 8860 fluorescence intensity (a.u.). The result for “TTCCGGGGCCTTATCTCTCTCTCTCTCCGAAACAGCCGACCGGAGTCACCTAGTGCAG” reads 8380 fluorescence intensity (a.u.). As for “TTTCCCTATTTCTTTCAGATTTTATATGTAGAAAGAATCACGGAGTCACCTAGTGCAG”, the binding signal was 11700 fluorescence intensity (a.u.).

Turning to “GCAATTCACACATCCATTGTCCAAGATCCTGATAAAGTTCCGGAGTCACCTAGTGCAG”, the binding signal was 8210 fluorescence intensity (a.u.). Regarding “AGTCATGTACTAATAATTTTATCATCACACCTTTAGTACTCGGAGTCACCTAGTGCAG”, the binding signal was 9700 fluorescence intensity (a.u.). “ACGCGCGGGCGGGGCGGGTGACGTCGCTGTCCCTCCCGGGCGGAGTCACCTAGTGCAG”: the binding signal was 8400 fluorescence intensity (a.u.). With “AGCGACTGCATGCTTTGATCGATCCATCTAGCTAATTGTTCGGAGTCACCTAGTGCAG”, the binding signal is 8060 fluorescence intensity (a.u.). Take “GCGGTGATGACAGACGGGAGAGGGAGGGTTTTTTTTGTTACGGAGTCACCTAGTGCAG”: the binding signal was 18200 fluorescence intensity (a.u.). Next, “ATACTTTTGATAGTCATATTTCATCTTAGCACACAGACCACGGAGTCACCTAGTGCAG”: 8240 fluorescence intensity (a.u.); “CACTCGACCGCCTTTGCTCCGCTTCGCCGGCCGCCCCGCACGGAGTCACCTAGTGCAG”: 10600 fluorescence intensity (a.u.). Consider “GCTATATAGCTTCATTTACAACCTAGTACGTATACACCTCCGGAGTCACCTAGTGCAG”, for which the binding signal was 9020 fluorescence intensity (a.u.). Consider “TTTTAAATTACCTGTAGTCTGAACTCTTATGTTGACTTTGCGGAGTCACCTAGTGCAG”, for which the binding signal was 8200 fluorescence intensity (a.u.). “TTTCAACTCACTTCTCTCGTTTTCCTTGTACACGTTTTCCCGGAGTCACCTAGTGCAG”: the binding signal is 10700 fluorescence intensity (a.u.). As to “GTCGCTTGCGCTTCACCGTCTTGCCATAGGTAGTCACTTCCGGAGTCACCTAGTGCAG”, the binding signal was 8270 fluorescence intensity (a.u.).

“GGGAGCCATTTTGTTAACATTCATATCTAGTATTGGGGTTCGGAGTCACCTAGTGCAG”: the binding signal is 15100 fluorescence intensity (a.u.). With “TCCACATCATCCGACCAACTCTACCAGCCATTCCACCCGCCGGAGTCACCTAGTGCAG”, the binding signal is 9160 fluorescence intensity (a.u.). Next, “GTAGAGGTGGTAGAAATTGATAGGAAGTTTAGTTGGAGACCGGAGTCACCTAGTGCAG”: 8620 fluorescence intensity (a.u.); “TGCTTGCAGGCAAATCAAAACAATTGCTAGGTCGTTGACCCGGAGTCACCTAGTGCAG”: 8520 fluorescence intensity (a.u.).

As to “TTAGGCCAAGTATGGGGTTGGGGCTATGGAGGAGAAGGGCCGGAGTCACCTAGTGCAG”, the binding signal was 9790 fluorescence intensity (a.u.).
